From publication PMC9570119
Results are given in words; binding and its absence hold for the method and conditions named. In cells and extracts the contact can be indirect. Some entries that bind do so weakly or less than the wild type. Sequences can lack the tags named with a protein.

Sequences of proteins named here, by UniProt entry; tags and fusion partners are left off.
UniProt P04792: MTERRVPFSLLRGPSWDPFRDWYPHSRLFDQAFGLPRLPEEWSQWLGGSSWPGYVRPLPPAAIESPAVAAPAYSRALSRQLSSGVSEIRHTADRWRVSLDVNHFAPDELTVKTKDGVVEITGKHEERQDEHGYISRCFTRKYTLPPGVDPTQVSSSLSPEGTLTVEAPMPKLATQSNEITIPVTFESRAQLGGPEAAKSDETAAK

Legend:
[1] = target: FLAG-tagged FAIM-S (Fas Apoptosis Inhibitory Molecule, short form) (human) (UniProt Q9NVQ4); assay: co-IP; FAIM-KO HeLa cells transfected with FLAG-FAIM-S, with or without menadione (100 μM) or heat shock (43 °C); RIPA lysate; anti-FLAG M2 magnetic beads, 4 °C, 2 h; eluted with 3 × FLAG peptide; Western blot for HSP proteins
[2] = target: FLAG-tagged FAIM-S (Fas Apoptosis Inhibitory Molecule, short form) (human) (UniProt Q9NVQ4); assay: proximity ligation; in situ PLA (Duolink) in FAIM-KO HeLa cells transfected with FLAG-tagged vectors; 43 °C for 30 min, DMSO or menadione 100 μM for 60 min; methanol-fixed; mouse anti-FLAG and goat anti-HSP27
[3] = target: FLAG-tagged FAIM-S (Fas Apoptosis Inhibitory Molecule, short form) expressed in HLE B-3 cells (human) (UniProt Q9NVQ4); assay: co-IP; HLE B-3 cells, treated and harvested as the HeLa cells (FLAG-FAIM-S, cellular stress induction); anti-FLAG immunoprecipitation; Western blot for HSP27, αA- and αB-crystallin

binding [1] | binding [2] | binding [3] | Substance
binds | binds | – | heat shock protein 27 (HSP27) (from UniProt P04792 1-205)
– | – | binds | heat shock protein 27 (HSP27) of HLE B-3 cells (from UniProt P04792 1-205)
